From the supplement of paper PMC4749390 come the findings set out here.

Structures are written as SMILES. “And” between values parts separate entries of the source, which are not always exact repeats. Identical values can stand only once. Counter-ions that a name gives are not always drawn. The list shows a part of the results. Single values are uncertain here, since repeats match poorly.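 JEG3 cells stably express tetracycline-inducible wild-type human LRH-1, a highly sumoylated nuclear receptor. SUMO-sensitive transcripts APOC3 and MUC1, increased by SUMO-deficient LRH-1 or UBC9 knockdown, were quantified by RT-qPCR relative to TBP and DMSO controls. Primary hits had robust Z-scores above +2 or below -2, before toxicity and TBP filtering.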

For this assay, the system named is JEG3 expressing hLRH-1. Description: APOC3 transcript change (ddCt vs TBP and DMSO), Z-score over library; higher = higher APOC3 expression. To be noted: 10 µM; time (hr): 24.
Consider `C[C@@H](O)[C@H]1C(=O)N2C(C(=O)O)=C(SCC/N=C/N)C[C@H]12` [imipenem], for which the “APOC3 transcript change (Z-score)” value was found to be 0.29.
With `C[C@]12CCC(=O)C=C1CCC1C2[C@@H](O)C[C@@]2(C)C1CC[C@]2(O)C(=O)CO` (some centres not stated) [hydrocortisone] the figure was -0.295; with `CO[C@H]1C[C@@H]2CC[C@@H](C)[C@@](O)(O2)C(=O)C(=O)N2CCCC[C@H]2C(=O)O[C@H]([C@H](C)C[C@@H]2CC[C@@H](O)[C@H](OC)C2)CC(=O)[C@H](C)/C=C(\C)[C@@H](O)[C@@H](OC)C(=O)[C@H](C)C[C@H](C)/C=C/C=C/C=C/1C` [sirolimus], 0.134; with `CN[C@@H]1[C@H](OC2[C@H](O[C@H]3[C@H](O)[C@@H](O)[C@H](N=C(N)N)[C@@H](O)[C@@H]3N=C(N)N)O[C@@H](C)[C@]2(O)C=O)O[C@@H](CO)[C@H](O)[C@H]1O` (some centres not stated) [streptomycin sulfate], -1.02.
For `C#C[C@]1(O)CC[C@H]2[C@@H]3CCc4cc(OC)ccc4[C@H]3CC[C@@]21C` [mestranol], the “APOC3 transcript change (Z-score)” value worked out at 0.27.
For the compound `Cc1c(C(N)=O)cc([N+](=O)[O-])cc1[N+](=O)[O-]` [dinitolmide], the “APOC3 transcript change (Z-score)” value was 0.214.
With `CCN1CCCC1CNC(=O)c1cc(S(=O)(=O)CC)c(N)cc1OC` (configuration not stated) [amisulpride] the figure was -0.99; with `Cc1nc(C)c(Cl)c(O)c1Cl` [clopidol], -0.0783.
Turning to `Nc1nc(F)nc2c1ncn2[C@@H]1O[C@H](COP(=O)(O)O)[C@@H](O)[C@@H]1O` [fludarabine phosphate], the “APOC3 transcript change (Z-score)” value was -0.2.
With `C#C[C@]1(O)CCC2C3CCC4=CC(=O)CC[C@@H]4C3CC[C@@]21C` (some centres not stated) [norethindrone] the figure was 0.355.
With `NC(N)=O` [urea] the figure was 0.264; with `CNCC[C@H](Oc1cccc2ccccc12)c1cccs1` [duloxetine hydrochloride], 0.601.
In the case of `N[C@H](Cc1ccccc1)C(=O)O` [d-phenylalanine] it was 0.798; in that of `CNC[C@H](O)c1cccc(O)c1` [Phenylephrine hydrochloride], -0.647; in that of `COc1ccc2cc(CCC(C)=O)ccc2c1` [nabumetone], 1.02.
Take `COCCO/C(O)=C1\C(C)=NC(C)=C(C(=O)OC(C)C)C1c1cccc([N+](=O)[O-])c1` (configuration not stated) [Nimodipine]: the “APOC3 transcript change (Z-score)” value was found to be 0.594.
In the case of `CC(/N=C(\NC#N)Nc1ccncc1)C(C)(C)C` (configuration not stated) [Pinacidil] it was 0.587; in that of `CC(C)(CO)[C@@H](O)C(=O)NCCCO` [dexpanthenol], -0.381.
With `OC(CCN1CCCCC1)(c1ccccc1)C1CC2C=CC1C2` (configuration not stated) [biperiden] the figure was -0.742; with `CCOC(=O)[C@H](CCc1ccccc1)N[C@@H](C)C(=O)N1[C@H](C(=O)O)C[C@H]2CCCC[C@@H]21` [trandolapril], 0.333; with `CCC(c1ccc(O)cc1)C(CC)c1ccc(O)cc1` (configuration not stated) [hexestrol], 0.33.
With `CC(C[N+](C)(C)C)OC(N)=O` (configuration not stated) [Bethanechol chloride] the figure was 0.0506; with `C[C@H]1[C@H](NC(=O)/C(=N\OC(C)(C)C(=O)O)c2csc(N)n2)C(=O)N1S(=O)(=O)O` [aztreonam], 0.734.
Consider `CCCCCCCCCCCCCCCC(=O)OCC(O)[C@H]1OC(O)=C(O)C1=O` (some centres not stated) [ascorbyl palmitate], for which the “APOC3 transcript change (Z-score)” value is -0.0886.
As to `CC(=O)N1CCN(c2ccc(OCC3CO[C@](Cn4ccnc4)(c4ccc(Cl)cc4Cl)O3)cc2)CC1` (some centres not stated) [ketoconazole], the “APOC3 transcript change (Z-score)” value was -0.352.
With `CO/N=C1\CN(c2nc3c(cc2F)c(=O)c(C(=O)O)cn3C2CC2)CC1CN` (configuration not stated) [gemifloxacin mesylate] the figure was 0.377; with `O=C(Nc1ccc(C(=O)O)c(O)c1)c1ccccc1` [benzoylpas], 0.363.
In the case of `c1ccc(C2CN3CCSC3=N2)cc1` (configuration not stated) [tetramizole hydrochloride] it was -3.05; in that of `C[C@@H]1CN(c2c(F)c(N)c3c(=O)c(C(=O)O)cn(C4CC4)c3c2F)C[C@H](C)N1` [sparfloxacin], 0.113; in that of `Nc1c2c(nc3ccccc13)CCCC2` [9-Amino-1,2,3,4-tetrahydroacridine hydrochloride], 1.8.
Turning to `[NH2][Pt]([NH2])([Cl])[Cl]` [cisplatin], the “APOC3 transcript change (Z-score)” value turned out to be 0.0393.
With `OC(CCN1CCCCC1)(c1ccccc1)c1ccccc1` [pridinol methanesulfonate] the figure was 0.446; with `CC1(C)S[C@@H]2[C@H](NC(=O)[C@H](C(=O)O)c3cccs3)C(=O)N2[C@H]1C(=O)O` [ticarcillin disodium], 1.52.
In the case of `CCC1=C[C@@H]2CN(C1)Cc1c([nH]c3ccccc13)[C@@](C(=O)OC)(c1cc3c(cc1OC)N(C)[C@H]1[C@@](O)(C(=O)OC)[C@H](OC(C)=O)[C@]4(CC)C=CCN5CC[C@]31[C@@H]54)C2` [vinorelbine] it was -1.81; in that of `OCc1ccccc1` [benzyl alcohol], -1.3.
With `CN(C)c1ccc2nc3ccc(N(C)C)cc3[s+]c2c1` [methylene blue] the figure was -0.692; with `CCOC(=O)CCC(=O)O[C@H]1[C@H](O[C@@H]2[C@@H](C)[C@H](O[C@H]3C[C@@](C)(OC)[C@@H](O)[C@H](C)O3)[C@@H](C)C(=O)O[C@H](CC)[C@@](C)(O)[C@H](O)[C@@H](C)C(=O)[C@H](C)C[C@@]2(C)O)O[C@H](C)C[C@@H]1N(C)C` [erythromycin ethylsuccinate], -0.383; with `O=C1c2ccccc2C(=O)C1c1ccc(Br)cc1` [bromindione], 0.41.
Regarding `Nc1ccc(C(=O)Oc2ccccc2)c(O)c1` [fenamisal], the “APOC3 transcript change (Z-score)” value was found to be 0.427.
With `COc1ccc2c(c1)c(CC(=O)OCC(=O)O)c(C)n2C(=O)c1ccc(Cl)cc1` [acemetacin] the figure was -1.06; with `CC(O)Cn1cnc2c1c(=O)n(C)c(=O)n2C` (configuration not stated) [proxyphylline], 0.535; with `CN(Cc1cc(Br)cc(Br)c1N)C1CCCCC1` [bromhexine hydrochloride], 0.143.
With `Nc1ncnc2c1ncn2[C@@H]1O[C@H](COP(=O)(O)O)[C@@H](O)[C@H]1O` [adenosine phosphate], the “APOC3 transcript change (Z-score)” value is -0.397.
In the case of `O=c1oc2c(O)c(O)cc3c(=O)oc4c(O)c(O)cc1c4c23` [ellagic acid] it was -0.244; in that of `CCCc1nc(C)c2c(O)nc(-c3cc(S(=O)(=O)N4CCN(CC)CC4)ccc3OCC)nn12` [vardenafil hydrochloride], 0.8.
In the case of `NC(=O)N/N=C/c1ccc([N+](=O)[O-])o1` [nitrofurazone] it was -0.872.
In the case of `CC(C)Cc1ccc(C(C)C(=O)O)cc1` (racemic) [(±)-Ibuprofen] it was 0.862; in that of `CCOc1nc2cccc(C(=O)OCc3oc(=O)oc3C)c2n1Cc1ccc(-c2ccccc2-c2noc(O)n2)cc1` [azilsartan kamedoxomil], -0.499; in that of `C[N+]1(C)CCC(OC(=O)C(O)(c2ccccc2)C2CCCC2)C1` (configuration not stated) [glycopyrrolate], 0.787.
`CC(=O)OCC(=O)[C@@]1(O)CC[C@H]2[C@@H]3CCC4=CC(=O)C=C[C@]4(C)[C@@]3(F)[C@@H](O)C[C@@]21C` [isoflupredone acetate]: the “APOC3 transcript change (Z-score)” value stood at 0.578.
In the case of `CCCCC(=O)O[C@]1(C(=O)CO)[C@@H](C)C[C@H]2[C@@H]3CCC4=CC(=O)C=C[C@]4(C)[C@@]3(F)[C@@H](O)C[C@@]21C` [betamethasone valerate] it was 0.649; in that of `OC[C@@H](O)[C@@H](O)[C@H](O)[C@@H](O)CO` [mannitol], -1.61; in that of `C#C[C@]1(O)CC[C@H]2[C@@H]3[C@H](C)CC4=C(CCC(=O)C4)[C@H]3CC[C@@]21C` [tibolone], -1.24.
In the case of `CCn1cc(C(=O)O)c(=O)c2cnc(N3CCNCC3)nc21` [pipemidic acid] it was -0.283; in that of `Oc1ccc(O)cc1` [hydroquinone], 0.233; in that of `CC(=O)N[C@@H](CC(C)C)C(=O)O` [acetyl-l-leucine], -0.204.
With `NCC1CCCCC1CC(=O)O` (configuration not stated) [gabapentin] the figure was -0.359; with `O=C(O)c1cc(=O)c2c(OCC(O)COc3cccc4oc(C(=O)O)cc(=O)c34)cccc2o1` [cromolyn sodium], 0.755.
Regarding `CC1(C)O[C@@H]2C[C@H]3[C@@H]4CCC5=CC(=O)C=C[C@]5(C)[C@H]4[C@@H](O)C[C@]3(C)[C@]2(C(=O)CO)O1` [desonide], the “APOC3 transcript change (Z-score)” value came out at 2.11.
With `CCCCNc1cc(C(=O)O)cc(S(N)(=O)=O)c1Oc1ccccc1` [bumetanide] the figure was -0.0902; with `C[C@]12CCC3c4ccc(O)cc4CCC3C1CCC2=O` (some centres not stated) [estrone], 0.248; with `COC(=O)Nc1nc2cc(C(=O)c3ccccc3)ccc2[nH]1` [mebendazole], -1.38.
With `CCCCOc1ccc(C(=O)CCN2CCCCC2)cc1` [dyclonine hydrochloride] the figure was 0.387 and 0.426.
With `CNC(C)[C@@H]1CC[C@@H](N)[C@@H](OC2[C@@H](N)C[C@@H](N)[C@H](OC3OC[C@](C)(O)[C@H](NC)[C@H]3O)[C@H]2O)O1` (some centres not stated) [gentamicin sulfate] the figure was -0.881; with `CN(C)[C@@H]1C(=O)C(C(N)=O)=C(O)[C@@]2(O)C(=O)C3=C(O)c4c(O)ccc(Cl)c4[C@@H](O)[C@H]3C[C@@H]12` [demeclocycline hydrochloride], -0.761; with `C[C@H]1COc2c(N3CCN(C)CC3)c(F)cc3c(=O)c(C(=O)O)cn1c23` [levofloxacin], -0.39.
`Nc1c(Br)cc(Br)cc1CNC1CCC(O)CC1` (configuration not stated) [ambroxol hydrochloride]: the “APOC3 transcript change (Z-score)” value is 0.599.
With `Cc1cccc(CN2CCN(C(c3ccccc3)c3ccc(Cl)cc3)CC2)c1` (configuration not stated) [meclizine hydrochloride] the figure was 0.7; with `CCN(CC)C(=S)SSC(=S)N(CC)CC` [disulfiram], -0.641; with `CC1(C)S[C@@H]2[C@H](NC(=O)C(C(=O)O)c3ccccc3)C(=O)N2[C@H]1C(=O)O` (some centres not stated) [carbenicillin disodium], 1.81.
In the case of `COc1ccc(OC)c(C(O)CNC(=O)CN)c1` (configuration not stated) [midodrine hydrochloride] it was 0.678; in that of `C[C@H](N)[C@H](O)c1cccc(O)c1` [metaraminol bitartrate], -0.794.
